For at least one entry, the source does not settle the construct or the ends of the probe. Protein sequences can lack the tags named with them.
Biological target: T1, His-SlTCP10 (Solanum lycopersicum) (UniProt G3BGV0)
T1 sequence (looked up, limits assumed): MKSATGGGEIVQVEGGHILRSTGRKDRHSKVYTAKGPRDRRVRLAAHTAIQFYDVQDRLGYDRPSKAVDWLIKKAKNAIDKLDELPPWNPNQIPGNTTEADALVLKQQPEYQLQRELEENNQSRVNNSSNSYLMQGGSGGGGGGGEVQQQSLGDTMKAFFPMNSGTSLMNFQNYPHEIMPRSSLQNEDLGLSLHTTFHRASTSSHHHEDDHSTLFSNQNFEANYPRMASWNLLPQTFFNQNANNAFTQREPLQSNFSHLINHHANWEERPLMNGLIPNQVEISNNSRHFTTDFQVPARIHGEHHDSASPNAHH
Assay: EMSA
Settings: 50x and 100x unlabelled probe weakened the band; Chemiluminescent biotin EMSA, 0.5x TBE gel, 100 V on ice; binding buffer, salt and pH not stated; recombinant protein; protein details: His; label: biotin

TTTATTTAGATTCATGTATTTGGTCCAAAACTTTACTGCTCGATAAGGTC (double strand) [JA2p-EMSA (SlJA2 promoter probe)]
binding result: binds

Source: paper PMC10138608
